PubChem BioAssay AID1259405, NCATS | 2018
Aim: 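Knock-downs that lift recombinant protein yield in hamster ovary cells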 (primary screen). Cells: Chinese hamster CHO-K1 ovary cells with stable secreted eGFP expression. Reagent: single siRNA against mouse genes, 0.8 pmol siRNA per well (2 µl of 400 nM stock). Duration: 3 days. Measured: 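Percent of the per-plate non-targeting control median for intracellular GFP per well by laser scanning cytometry and for cell viability by ATP luminescence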. Reading the numbers: GFP, % of control: higher = more GFP per well, higher productivity; viability (ATP), % of control: higher = more viable cells (more ATP). Hit rule: 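Called active when intracellular GFP, relative to negative control, is at or above 120%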.
The deposit covers about 50,000 reagents; shown is a part drawn at random. In the full data, about 4,000 (8%) are marked active. 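Mouse siRNA library applied to hamster cells; one well for each siRNA.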 Reagents against one gene are numbered here.

Target gene,reagent,"GFP, % of control","viability (ATP), % of control",outcome
Ep400 (E1A binding protein p400),1,149,121,active
Ep400 (E1A binding protein p400),2,112,110,inactive
Ep400 (E1A binding protein p400),3,49,28.9,inactive
Krt88 (keratin 88),1,37.7,16.3,inactive
Krt88 (keratin 88),2,91.3,92.3,inactive
Krt88 (keratin 88),3,74.6,57.3,inactive
Sox3 (SRY (sex determining region Y)-box 3),1,139,119,active
Sox3 (SRY (sex determining region Y)-box 3),2,111,70.4,inactive
Sox3 (SRY (sex determining region Y)-box 3),3,77.6,85.2,inactive
Ybx1 (Y box protein 1),1,45.2,67.8,inactive
Ybx1 (Y box protein 1),2,83.4,87,inactive
Ybx1 (Y box protein 1),3,39.8,44.5,inactive
Pik3c3 (phosphatidylinositol 3-kinase catalytic subunit type 3),1,89.1,73.2,inactive
Recql (RecQ protein-like),1,52.1,72.4,inactive
Recql (RecQ protein-like),2,66.9,96.9,inactive
Recql (RecQ protein-like),3,30.2,31.9,inactive
Ercc2,1,81.3,102,inactive
Ercc2,2,63.9,63.6,inactive
Ercc2,3,92.4,94.3,inactive
"Cyp4f18 (cytochrome P450, family 4, subfamily f, polypeptide 18)",1,72,88.7,inactive
"Cyp4f18 (cytochrome P450, family 4, subfamily f, polypeptide 18)",2,117,93.3,inactive
"Cyp4f18 (cytochrome P450, family 4, subfamily f, polypeptide 18)",3,85.7,83.8,inactive
Slc15a1,1,38.7,51.7,inactive
Slc15a1,2,118,94.8,inactive
Slc15a1,3,91.6,82.7,inactive
Or56b34 (olfactory receptor family 56 subfamily B member 34),1,118,70.5,inactive
Or56b34 (olfactory receptor family 56 subfamily B member 34),2,82.1,72.7,inactive
Or56b34 (olfactory receptor family 56 subfamily B member 34),3,83.5,91.5,inactive
Hspb1 (heat shock protein family B (small) member 1),1,68.5,74.6,inactive
Hspb1 (heat shock protein family B (small) member 1),2,77.3,68.6,inactive
Hspb1 (heat shock protein family B (small) member 1),3,86.1,101,inactive
Pgm5 (phosphoglucomutase 5),1,70.9,111,inactive
Pgm5 (phosphoglucomutase 5),2,190,106,active
Pgm5 (phosphoglucomutase 5),3,50.9,65.4,inactive
Snx1 (sorting nexin 1),1,105,111,inactive
Snx1 (sorting nexin 1),2,103,75.4,inactive
"Acta1 (actin alpha 1, skeletal muscle)",1,72.7,79.7,inactive
"Acta1 (actin alpha 1, skeletal muscle)",2,57.5,105,inactive
9430077A04Rik (RIKEN cDNA 9430077A04 gene),1,31.9,38.1,inactive
9430077A04Rik (RIKEN cDNA 9430077A04 gene),2,44.6,69.1,inactive
9430077A04Rik (RIKEN cDNA 9430077A04 gene),3,80,94,inactive

Entries above whose target name begins with O or o:
Target gene,reagent,"GFP, % of control","viability (ATP), % of control",outcome
Or56b34 (olfactory receptor family 56 subfamily B member 34),1,118,70.5,inactive
Or56b34 (olfactory receptor family 56 subfamily B member 34),2,82.1,72.7,inactive
Or56b34 (olfactory receptor family 56 subfamily B member 34),3,83.5,91.5,inactive

Further results follow:
Target gene,reagent,"GFP, % of control","viability (ATP), % of control",outcome
Was (Wiskott-Aldrich syndrome),1,68.1,58.2,inactive
Was (Wiskott-Aldrich syndrome),2,42.7,58.2,inactive
Was (Wiskott-Aldrich syndrome),3,70.4,79.3,inactive
Schip1 (schwannomin interacting protein 1),1,95.2,87.1,inactive
Schip1 (schwannomin interacting protein 1),2,67.5,68.3,inactive
Schip1 (schwannomin interacting protein 1),3,87.4,74.3,inactive
"C8g (complement component 8, gamma polypeptide)",1,99.3,79.3,inactive
"C8g (complement component 8, gamma polypeptide)",2,98,84.6,inactive
Rho (rhodopsin),1,36.7,38.1,inactive
Rho (rhodopsin),2,78,89.8,inactive
Rho (rhodopsin),3,53.9,90.1,inactive
Dhx29 (DExH-box helicase 29),1,58.8,60,inactive
Dhx29 (DExH-box helicase 29),2,59.5,41.5,inactive
Dhx29 (DExH-box helicase 29),3,131,113,active
Vmn1r206 (vomeronasal 1 receptor 206),1,64.3,33.6,inactive
Vmn1r206 (vomeronasal 1 receptor 206),2,92.8,74.6,inactive
Vmn1r206 (vomeronasal 1 receptor 206),3,68.3,95.3,inactive
Tmem119 (transmembrane protein 119),1,88.5,92.8,inactive
Tmem119 (transmembrane protein 119),2,77.8,76.1,inactive
Tmem119 (transmembrane protein 119),3,95.8,139,inactive
Tmem186 (transmembrane protein 186),1,77.8,76,inactive
Tmem186 (transmembrane protein 186),2,44.7,59.7,inactive
Tmem186 (transmembrane protein 186),3,84.3,103,inactive
"Phospho1 (phosphatase, orphan 1)",1,85.2,96.2,inactive
"Phospho1 (phosphatase, orphan 1)",2,94.8,76.6,inactive
Wdr45 (WD repeat domain 45),1,48.5,42.7,inactive
Wdr45 (WD repeat domain 45),2,97.4,89.6,inactive
Wdr45 (WD repeat domain 45),3,75.9,83.7,inactive
Khsrp (KH-type splicing regulatory protein),1,122,104,active
Khsrp (KH-type splicing regulatory protein),2,78.9,95.8,inactive
Khsrp (KH-type splicing regulatory protein),3,91.7,54.8,inactive
Tbx1 (T-box 1),1,54.2,66.7,inactive
Tbx1 (T-box 1),2,65.5,70.6,inactive
Tbx1 (T-box 1),3,64.4,73.4,inactive
Lrrc19 (leucine rich repeat containing 19),1,26.1,20.2,inactive
Lrrc19 (leucine rich repeat containing 19),2,68.5,78.1,inactive
Lrrc19 (leucine rich repeat containing 19),3,67.5,68.6,inactive
Dkk2 (dickkopf WNT signaling pathway inhibitor 2),1,82,97.6,inactive
Dkk2 (dickkopf WNT signaling pathway inhibitor 2),2,113,119,inactive
Dkk2 (dickkopf WNT signaling pathway inhibitor 2),3,79.3,77.3,inactive
"Igsf11 (immunoglobulin superfamily, member 11)",1,56.9,65.6,inactive
"Igsf11 (immunoglobulin superfamily, member 11)",2,63.3,53.6,inactive
"Igsf11 (immunoglobulin superfamily, member 11)",3,59.4,85.2,inactive
